PubChem BioAssay AID1671195, Yale University, 2021

- Test: 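Regulators of LDL receptor activity judged by labelled LDL uptake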 (primary screen)
- Cells: human Huh7 hepatoma cells
- Reagent: siRNA pool against human genes, 18 nM
- Duration: about 2 to 2.5 days of knockdown, then 8 h LDL uptake
- Treatment: DiI-labelled LDL at 30 µg/ml for 8 h, in lipoprotein-deficient serum medium
- Detection: 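Fluorescent LDL signal imaged in cells, scaled to the plate median, robust z-score for each replicate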
- Scale: robust z-score: higher = more LDL uptake after knockdown
- Call rule: 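Active when two or more replicates show a robust z-score above 2 or below -2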
The deposit covers about 22,000 reagents; this is a random part of them. In the full data, about 1,510 (6.9%) are marked active. 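Active includes knockdowns raising or lowering LDL uptake; positive z-scores mean more uptake, negative mean less.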

For CNFN, the values are robust z-score, replicate 1 = -0.417; robust z-score, replicate 2 = -0.171; robust z-score, replicate 3 = 0.35; inactive.
Knock-down of TEX264 came out at: robust z-score, replicate 1 = 0.527; robust z-score, replicate 2 = 0.242; robust z-score, replicate 3 = 0.618; inactive.
CCDC50 showed robust z-score, replicate 1 = 0.774; robust z-score, replicate 2 = -0.643; robust z-score, replicate 3 = 0.2; inactive.
TNFSF9 scored robust z-score, replicate 1 = 0.132; robust z-score, replicate 2 = -0.0972; robust z-score, replicate 3 = -0.678; inactive.
After knock-down of NDC80, the screen gave robust z-score, replicate 1 = -0.81; robust z-score, replicate 2 = 1.17; robust z-score, replicate 3 = 1.16; inactive.
Against LOC339793 (retired record), the entry reads robust z-score, replicate 1 = -2.13; robust z-score, replicate 2 = -2.19; robust z-score, replicate 3 = -2.16; active.
For THYN1, the values are robust z-score, replicate 1 = 0.53; robust z-score, replicate 2 = -0.833; robust z-score, replicate 3 = 0.351; inactive.
Against SELL, the values are robust z-score, replicate 1 = -0.961; robust z-score, replicate 2 = -1.52; robust z-score, replicate 3 = -1.23; inactive.
Against ACSBG1 the deposit lists robust z-score, replicate 1 = 2.01; robust z-score, replicate 2 = -0.366; robust z-score, replicate 3 = 0.101; inactive.
Against ZNF491, the values are robust z-score, replicate 1 = -0.464; robust z-score, replicate 2 = -0.917; robust z-score, replicate 3 = -0.618; inactive.
Silencing of CD37 resulted in: robust z-score, replicate 1 = -0.193; robust z-score, replicate 2 = -0.595; robust z-score, replicate 3 = 0.91; inactive.
With knock-down of PINK1, the record shows robust z-score, replicate 1 = -1.26; robust z-score, replicate 2 = -0.853; robust z-score, replicate 3 = -1.61; inactive.

2 entries from above, reformatted:
Target gene,"robust z-score, replicate 1","robust z-score, replicate 2","robust z-score, replicate 3",outcome
CCDC50,0.774,-0.643,0.2,inactive
TNFSF9,0.132,-0.0972,-0.678,inactive
